Experimental findings from paper PMC6727202 (Molecular pharmaceutics, 2019) are described below.

Assay [1] has as its system EphB4+ A375SM tumor-bearing nude mice. In kind it is in vivo, mouse. Particulars: metformin 48 mg/kg iv co-injection vs radiotracer only, 4 h.
In assay [2] the test system is nude mice bearing SSTR2-expressing HT1080 tumors. It is filed as in vivo, mouse. Particulars: metformin 48 mg/kg iv co-injection vs radiotracer only, 24 h; tumor p=0.08.

For `CN(C)C(=N)NC(=N)N.Cl` [metformin, 1,1-Dimethylbiguanide hydrochloride], in assay [1], the “Effect on liver uptake of 68Ga-NOTA-c(TNYL-RAW)” value is listed as “No difference”. In assay [2], the “Differences in radiotracer uptake in all other major organs and in the tumor” value is “not statistically significant”.
